Source: PMC10226814
Results are given in words; binding and its absence hold for the method and conditions named. In cells and extracts the contact can be indirect. Some entries that bind do so weakly or less than the wild type.

Target: T1, endothelial nitric oxide synthase (rat (endogenous in penile corpus cavernosum)) (UniProt Q62600)
T1 sequence: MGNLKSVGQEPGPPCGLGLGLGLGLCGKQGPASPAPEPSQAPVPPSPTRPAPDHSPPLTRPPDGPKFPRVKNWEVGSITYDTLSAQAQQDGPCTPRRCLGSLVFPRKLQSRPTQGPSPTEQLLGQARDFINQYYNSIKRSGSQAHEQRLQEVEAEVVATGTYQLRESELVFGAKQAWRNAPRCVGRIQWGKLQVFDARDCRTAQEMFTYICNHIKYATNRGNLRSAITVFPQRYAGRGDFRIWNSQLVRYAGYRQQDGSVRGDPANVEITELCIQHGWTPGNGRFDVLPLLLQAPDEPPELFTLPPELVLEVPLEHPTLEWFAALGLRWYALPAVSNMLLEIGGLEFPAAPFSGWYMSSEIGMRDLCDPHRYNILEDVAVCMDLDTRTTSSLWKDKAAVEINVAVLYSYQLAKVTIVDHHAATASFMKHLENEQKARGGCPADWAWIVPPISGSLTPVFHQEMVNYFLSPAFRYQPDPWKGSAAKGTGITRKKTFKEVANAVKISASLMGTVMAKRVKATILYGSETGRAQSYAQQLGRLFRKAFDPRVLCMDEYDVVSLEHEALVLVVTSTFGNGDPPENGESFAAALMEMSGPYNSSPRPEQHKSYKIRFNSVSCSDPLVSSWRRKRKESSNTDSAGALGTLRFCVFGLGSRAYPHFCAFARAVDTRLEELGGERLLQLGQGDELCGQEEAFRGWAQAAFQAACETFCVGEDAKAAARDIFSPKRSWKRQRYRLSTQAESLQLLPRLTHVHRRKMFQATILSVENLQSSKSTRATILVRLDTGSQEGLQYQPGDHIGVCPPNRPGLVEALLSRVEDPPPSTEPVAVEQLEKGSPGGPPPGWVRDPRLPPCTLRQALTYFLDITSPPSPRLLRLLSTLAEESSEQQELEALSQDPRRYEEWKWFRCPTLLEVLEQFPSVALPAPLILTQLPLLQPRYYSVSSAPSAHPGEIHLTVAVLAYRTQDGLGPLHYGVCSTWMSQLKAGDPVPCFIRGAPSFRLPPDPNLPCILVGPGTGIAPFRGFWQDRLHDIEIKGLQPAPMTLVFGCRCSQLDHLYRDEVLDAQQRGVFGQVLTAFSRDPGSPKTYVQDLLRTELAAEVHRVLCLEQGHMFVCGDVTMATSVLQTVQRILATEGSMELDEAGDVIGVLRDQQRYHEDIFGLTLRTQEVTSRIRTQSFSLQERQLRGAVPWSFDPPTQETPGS
Assay: co-IP; eNOS precipitated from rat penile tissue lysate with anti-eNOS antibody and protein A + G agarose, 4 °C overnight, washed 5 times, blotted for GIT1; groups: sham operated, castration, testosterone supplement after castration, castration + vacant lentivirus, castration + GIT1 lentivirus

binding: binds
B1: G protein–coupled receptor kinase interactor 1 (protein, UniProt Q9Z272 1-770)
chain: MSRKGPRAEVCADCSAPDPGWASISRGVLVCDECCSVHRSLGRHISIVKHLRHSAWPPTLLQMVHTLASNGANSIWEHSLLDPAQVQSGRRKANPQDKVHPIKSEFIRAKYQMLAFVHKLPCRDDDGVTAKDLSKQLHSSVRTGNLETCLRLLSLGAQANFFHPEKGTTPLHVAAKAGQTLQAELLVVYGADPGSPDVNGRTPIDYARQAGHHELAERLVECQYELTDRLAFYLCGRKPDHKNGHYIIPQMADRSRQKCMSQSLDLSELAKAAKKKLQALSNRLFEELAMDVYDEVDRRENDAVWLATQNHSTLVTERSAVPFLPVNPEYSATRNQGRQKLARFNAREFATLIIDILSEAKRRQQGKSLSSPTDNLELSARNQSDLDDQHDYDSVASDEDTDQEPLPSAGATRNNRARSMDSSDLSDGAVTLQEYLELKKALATSEAKVQQLMKVNSSLSDELRKLQREIHKLQAENLQLRQPPGPVPVPSLPSERAEHTLMGPGGSTHRRDRQAFSMYEPGSALKPFGGAPGDELATRLQPFHSTELEDDAIYSVHVPAGLYRIRKGVSASSVTFTPSSPLLSSSQEGSRHASKLSRHGSGAESDYENTQSGEPLLGLEGKRFLELSKEDELHAELESLDGDPDPGLPSTEDVILKTEQVTKNIQELLRAAQEFKHDSFVPCSEKIHLAVTEMASLFPKRPALEPVRSSLRLLNASAYRLQSECRKTVPPEPGAPVDFQLLTQQVIQCAYDIAKAAKQLVTITTREKKQ
